According to article PMC7060199:
These are yes or no findings as the source states them, for the method shown. In cells and extracts the contact can be indirect. Some entries that bind do so weakly or less than the wild type.

Amino acid sequences for entries named in this document (tags omitted).
UniProt P23526: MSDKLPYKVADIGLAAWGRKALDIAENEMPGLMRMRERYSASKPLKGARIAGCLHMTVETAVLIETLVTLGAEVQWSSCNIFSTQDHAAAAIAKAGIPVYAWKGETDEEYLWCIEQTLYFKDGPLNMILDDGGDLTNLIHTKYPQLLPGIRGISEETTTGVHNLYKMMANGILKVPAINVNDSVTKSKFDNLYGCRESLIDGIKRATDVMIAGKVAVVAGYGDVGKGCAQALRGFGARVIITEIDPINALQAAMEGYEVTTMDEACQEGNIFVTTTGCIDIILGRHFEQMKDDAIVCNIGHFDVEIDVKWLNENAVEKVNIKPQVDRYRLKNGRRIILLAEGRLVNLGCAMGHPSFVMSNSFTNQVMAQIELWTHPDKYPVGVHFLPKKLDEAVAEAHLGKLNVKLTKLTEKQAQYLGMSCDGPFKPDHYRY
UniProt Q96HN2: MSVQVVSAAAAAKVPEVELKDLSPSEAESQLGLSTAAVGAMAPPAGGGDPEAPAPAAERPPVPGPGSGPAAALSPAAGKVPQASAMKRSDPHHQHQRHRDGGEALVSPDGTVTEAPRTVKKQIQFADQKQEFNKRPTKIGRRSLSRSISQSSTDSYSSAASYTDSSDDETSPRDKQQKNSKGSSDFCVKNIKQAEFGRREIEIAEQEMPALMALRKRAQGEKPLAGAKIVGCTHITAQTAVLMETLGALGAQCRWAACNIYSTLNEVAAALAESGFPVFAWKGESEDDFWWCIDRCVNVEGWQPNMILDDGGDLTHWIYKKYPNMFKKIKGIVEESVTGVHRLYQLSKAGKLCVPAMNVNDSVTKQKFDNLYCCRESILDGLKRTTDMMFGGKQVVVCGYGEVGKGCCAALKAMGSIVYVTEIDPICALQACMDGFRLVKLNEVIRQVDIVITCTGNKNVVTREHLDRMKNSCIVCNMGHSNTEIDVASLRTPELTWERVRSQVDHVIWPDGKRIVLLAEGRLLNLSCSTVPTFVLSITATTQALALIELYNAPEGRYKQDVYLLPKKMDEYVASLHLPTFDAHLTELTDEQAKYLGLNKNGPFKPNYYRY

Target: SAHH-HA (UniProt P23526)
Assay: co-IP; HEK293T stably expressing AHCYL-Flag and SAHH-HA, control, DJ-1-flag overexpression or DJ-1 KD; anti-HA magnetic beads, 4 h at 4 C; immunoblot with anti-Flag and anti-HA

binding: binds
Substance: AHCYL2-Flag (from UniProt Q96HN2 1-611)
